# Measurements from paper PMC5996148.
# Protein sequences, listed by entry. Tags and fused reporters are not part of them.
# UniProt P42830, whole entry: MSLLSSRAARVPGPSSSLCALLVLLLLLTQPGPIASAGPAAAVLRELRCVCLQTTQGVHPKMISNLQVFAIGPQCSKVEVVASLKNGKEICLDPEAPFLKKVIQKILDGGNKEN
# The other results are listed elsewhere or left out. For some assays here: The exact form of the protein is not confirmed.
# Legend:
# Assay in all cases: protein microarray (ProtoArray v5.0), streptavidin-Alexa Fluor 647
# Settings in all cases: 3'-biotin; 20 mM Tris (pH 7.5), 5 mM MgCl2, 100 mM KCl, 0.1% Tween-20, A/T-rich and random oligonucleotide blockers; temperature not stated; high values mean tight binding
# CXCL5 = CXCL5 (UniProt P42830)
# CYB5B (human) = test system: CYB5B (human)
# CYFIP2 (human) = test system: CYFIP2 (human)
# CYP1A1 = target: T1, CYP1A1 (UniProt P04798)
# T1 sequence: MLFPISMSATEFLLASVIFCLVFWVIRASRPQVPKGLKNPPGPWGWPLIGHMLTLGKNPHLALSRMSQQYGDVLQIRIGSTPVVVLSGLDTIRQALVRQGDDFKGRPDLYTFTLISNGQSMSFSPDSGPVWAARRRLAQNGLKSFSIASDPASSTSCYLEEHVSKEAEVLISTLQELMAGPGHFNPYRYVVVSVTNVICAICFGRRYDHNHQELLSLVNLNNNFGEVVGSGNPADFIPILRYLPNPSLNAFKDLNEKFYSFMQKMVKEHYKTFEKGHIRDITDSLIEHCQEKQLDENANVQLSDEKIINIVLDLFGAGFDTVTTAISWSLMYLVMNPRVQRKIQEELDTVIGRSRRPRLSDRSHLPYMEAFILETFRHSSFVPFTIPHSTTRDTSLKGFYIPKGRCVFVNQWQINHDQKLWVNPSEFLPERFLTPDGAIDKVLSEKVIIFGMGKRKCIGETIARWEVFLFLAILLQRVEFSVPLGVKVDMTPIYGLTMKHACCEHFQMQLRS
# CYP20A1 (human) = test system: CYP20A1 (human)
# CYP27A1 (human) = test system: CYP27A1 (human)
# CYP4F11 (human) = test system: CYP4F11 (human)
# CYTL1 (human) = test system: CYTL1 (human)
# [1] = test system: Calcium-binding protein 39-like (human)
# [2] = test system: Calcium-transporting ATPase type 2C member 1 (human)
# [3] = test system: Calcium/calmodulin-dependent protein kinase type 1 (human)
# [4] = test system: Calcyclin-binding protein (human)
# Calretinin (human) = test system: Calretinin (human)
# [5] = test system: Carbonic anhydrase 3 (human)
# [6] = test system: Carboxypeptidase A2 (human)
# [7] = test system: Casein kinase I isoform gamma-2 (human)
# [8] = test system: Caspase recruitment domain-containing protein 14 (human)
# [9] = test system: Caspase recruitment domain-containing protein 9 (human)
# [10] = test system: Centromere protein Q (human)
# [11] = test system: Ciliary neurotrophic factor (human)
sequence,measurement,setting,value
GGTGACAGGGGTATGGGGAGGGG [G4-2 biotinylated (Ct1)],binding signal,CXCL5,-0.359 z-score
same,binding signal,CYB5B (human),-0.387 z-score
same,binding signal,CYFIP2 (human),-0.404 z-score
same,binding signal,CYP1A1,-0.38 z-score
same,binding signal,CYP20A1 (human),-0.379 z-score
same,binding signal,CYP27A1 (human),-0.363 z-score
same,binding signal,CYP4F11 (human),-0.378 z-score
same,binding signal,CYTL1 (human),-0.369 z-score
same,binding signal,[1],-0.399 z-score
same,binding signal,[2],-0.366 z-score
same,binding signal,[3],-0.401 z-score
same,binding signal,[4],4.06 z-score
same,binding signal,Calretinin (human),-0.38 z-score
same,binding signal,[5],-0.386 z-score
same,binding signal,[6],-0.376 z-score
same,binding signal,[7],4.69 z-score
same,binding signal,[8],-0.371 z-score
same,binding signal,[9],-0.375 z-score
same,binding signal,[10],-0.404 z-score
same,binding signal,[11],-0.398 z-score

# Two records picked at random from those above, as already listed:
sequence,measurement,setting,value
GGTGACAGGGGTATGGGGAGGGG [G4-2 biotinylated (Ct1)],binding signal,CXCL5,-0.359 z-score
same,binding signal,CYFIP2 (human),-0.404 z-score
